The text below walks through data of paper PMC11196586, “Molecular insight into interactions between the Taf14, Yng1 and Sas3 subunits of the NuA3 complex” (Nature Communications, 2024).

By UniProt entry, the sequences of proteins in these tests, tags left out. Residues count along the entry.
UniProt P35189, residues 1-137: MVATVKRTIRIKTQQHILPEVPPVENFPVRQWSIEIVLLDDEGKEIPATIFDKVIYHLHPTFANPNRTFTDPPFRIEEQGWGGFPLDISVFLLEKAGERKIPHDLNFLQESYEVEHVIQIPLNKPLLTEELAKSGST

No constants are given. Whether binding was seen depends on the method and setting.

This assay deals with Taf14 YEATS domain (aa 1-137) (S. cerevisiae) (UniProt P35189). The assay is described as follows: NMR titration; 1H,15N HSQC of 0.05-0.2 mM 15N-labeled Taf14 proteins, 298 K, unlabeled peptide or Yng1EBM-PHD added; Tris-HCl or PBS, pH 6.6-7.5; apparent Kd from CSPs, 1:1 stoichiometry; both purified.

Consider EPKLLLKINLKK (N-terminal acetyl (Ac-); C-terminal amide (-NH2)) [Yng1EBM peptide (aa 113-124 of Yng1), Ac-…-NH2], for which the binding entry was “no binding”.
